Test results as given in PMC12365249.
No constants are given. Whether binding was seen depends on the method and setting. Binding seen in cells or lysates may run through a third protein. Here binding means that the protein was enriched with, or labelled near, the bait; the list need not be complete.

By UniProt entry, the sequences of proteins in these tests, tags left out.
UniProt Q96RN5: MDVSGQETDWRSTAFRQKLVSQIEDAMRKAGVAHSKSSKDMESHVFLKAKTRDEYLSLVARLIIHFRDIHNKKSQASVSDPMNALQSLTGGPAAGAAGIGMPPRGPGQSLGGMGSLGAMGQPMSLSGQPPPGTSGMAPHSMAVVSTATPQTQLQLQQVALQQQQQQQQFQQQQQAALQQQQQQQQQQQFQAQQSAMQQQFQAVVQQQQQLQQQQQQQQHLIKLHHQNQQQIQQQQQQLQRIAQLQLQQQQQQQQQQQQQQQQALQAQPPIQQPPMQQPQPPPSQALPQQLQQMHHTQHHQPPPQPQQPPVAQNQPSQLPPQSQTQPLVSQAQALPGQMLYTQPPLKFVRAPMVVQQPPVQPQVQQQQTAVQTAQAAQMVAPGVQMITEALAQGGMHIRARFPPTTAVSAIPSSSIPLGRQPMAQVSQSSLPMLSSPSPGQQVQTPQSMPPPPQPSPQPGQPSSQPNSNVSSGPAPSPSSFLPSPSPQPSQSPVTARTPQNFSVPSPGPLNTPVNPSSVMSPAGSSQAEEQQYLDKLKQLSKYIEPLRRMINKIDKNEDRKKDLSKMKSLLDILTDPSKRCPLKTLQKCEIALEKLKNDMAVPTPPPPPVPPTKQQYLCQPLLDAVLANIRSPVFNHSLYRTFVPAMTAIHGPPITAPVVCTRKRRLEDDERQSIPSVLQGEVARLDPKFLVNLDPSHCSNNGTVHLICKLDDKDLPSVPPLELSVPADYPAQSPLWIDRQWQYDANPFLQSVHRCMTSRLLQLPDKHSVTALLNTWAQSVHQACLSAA

Target: HA-MED15 (Mediator subunit MED15, HA tag knocked into the N-terminus of the endogenous gene) (human (endogenous in 293T)) (UniProt Q96RN5)
Assay: affinity purification with mass spectrometry; HA IP with anti-HA magnetic beads from nuclear extracts of HA-MED15 knock-in 293T cells against 293T WT control cells, n = 3

binding: binds
B1: forkhead box protein A1 (FOXA1), endogenous in 293T cells (protein, UniProt P55317 1-472)
chain: MLGTVKMEGHETSDWNSYYADTQEAYSSVPVSNMNSGLGSMNSMNTYMTMNTMTTSGNMTPASFNMSYANPGLGAGLSPGAVAGMPGGSAGAMNSMTAAGVTAMGTALSPSGMGAMGAQQAASMNGLGPYAAAMNPCMSPMAYAPSNLGRSRAGGGGDAKTFKRSYPHAKPPYSYISLITMAIQQAPSKMLTLSEIYQWIMDLFPYYRQNQQRWQNSIRHSLSFNDCFVKVARSPDKPGKGSYWTLHPDSGNMFENGCYLRRQKRFKCEKQPGAGGGGGSGSGGSGAKGGPESRKDPSGASNPSADSPLHRGVHGKTGQLEGAPAPGPAASPQTLDHSGATATGGASELKTPASSTAPPISSGPGALASVPASHPAHGLAPHESQLHLKGDPHYSFNHPFSINNLMSSSEQQHKLDFKAYEQALQYSPYGSTLPASLPLGSASVTTRSPIEPSALEPAYYQGVYSRPVLNTS
